The subject of the test is P388 leukemia ip, CD2F1 mice, survival T/C. Nature of the test: NCI In Vivo Anticancer Drug Screen. Data for tumor model P388 Leukemia (intraperitoneal) in CD2F1 (CDF1) mice. The following applies: T/C endpoint: median survival time, higher T/C = longer survival.
[1] abbreviates: dose: 240.0 mg/kg/injection, schedule: Q01DX005 (ip), vehicle: saline with Tween-80.
Setting [2] is: dose: 200.0 mg/kg/injection, schedule: Q01DX009 (ip), vehicle: saline with Tween-80.
[3] abbreviates: dose: 400.0 mg/kg/injection, schedule: Q01DX009 (ip), vehicle: saline with Tween-80.
The mark [4] stands for this setting: dose: 100.0 mg/kg/injection, schedule: Q04DX003 (ip), vehicle: saline with Tween-80.
Setting [5] is: dose: 200.0 mg/kg/injection, schedule: Q04DX003 (ip), vehicle: saline with Tween-80.
The mark [6] stands for this setting: dose: 400.0 mg/kg/injection, schedule: Q04DX003 (ip), vehicle: saline with Tween-80.
[7] abbreviates: dose: 200.0 mg/kg/injection, schedule: Q04DX003 (ip), vehicle: Klucel (hydroxypropylcellulose) (HPC).
The mark [8] stands for this setting: dose: 400.0 mg/kg/injection, schedule: Q04DX003 (ip), vehicle: Klucel (hydroxypropylcellulose) (HPC).
[9] abbreviates: dose: 200.0 mg/kg/injection, schedule: Q01DX005 (ip), vehicle: saline with Tween-80.

The list is a part of this screen's results and no random one: it is rich in T/C values a quarter to a half above the control, in often repeated tests (any T/C) and in doses without a T/C. Further doses and runs are listed elsewhere. T/C: endpoint of the treated group in % of that of the vehicle group. Some doses have a count of surviving animals in place of a T/C: the source files T/C as zero there, which appears to mark a toxic dose or a test without result, not a measured value. Some survivor counts are full or nearly so, which does not show that the dose was tolerated: the source hardly ever lists a survival T/C far under the control, and the zero likely stands for such cases as well. Survivors were counted at the toxicity check, usually on the fifth day, unless a day is given; later deaths do not show. Schedules are NCI's codes, read here as Q, the interval in days (D) or hours (H), X, the number of doses. Some entries were tested several times; the values are given in rising order. Where survival is the endpoint, the PubChem record calls one and a half times the control and up active, and a quarter to a half above the control has no call in these data; cut-offs in other NCI protocols can differ.

For `COC(=O)c1cc(-c2ccc(OC)cc2)[nH]c(=O)c1C#N`, under setting [1], the survivor count is reported as 1 of 6.
For `NC(Cc1ccccc1)C(=O)Nc1ccncc1` (stereo not drawn), the survivor count is 0 of 6 (dose: 100.0 mg/kg/injection, schedule: Q01DX001 (ip), vehicle: saline); 0 of 6 (dose: 200.0 mg/kg/injection, schedule: Q01DX001 (ip), vehicle: saline); 0 of 6 (dose: 400.0 mg/kg/injection, schedule: Q01DX001 (ip), vehicle: saline).
As to `COCC/C(COC)=N\N=C(/CCOC)COC`, the survivor count is given as 6 of 6 under setting [2] and 0 of 6 under setting [3].
For `Cc1nc2cc[nH]n2c(=O)c1CCc1ccccc1`, under setting [1], the survivor count is given as 6 of 6.
Take `CCC/C(C)=N/NC(=S)SC`: the survivor count (dose: 50.0 mg/kg/injection, schedule: Q01DX009 (ip), vehicle: saline) is on record as 2 of 6; the survivor count (dose: 100.0 mg/kg/injection, schedule: Q01DX009 (ip), vehicle: saline) is listed as 1 of 6; the survivor count (dose: 200.0 mg/kg/injection, schedule: Q01DX009 (ip), vehicle: saline) is 0 of 6.
Take `CN1CCC(OC(=O)c2ccc3c(c2)OCO3)CC1`: the survivor count under setting [4] is recorded as 1 of 6, the survivor count under setting [5] is 0 of 6 and the survivor count under setting [6] is 0 of 6.
`CN(C)/C(=N\O)c1ccccc1`: the survivor count by setting is: (dose: 12.5 mg/kg/injection, schedule: Q04DX003 (ip), vehicle: saline) 3 of 6; (dose: 25.0 mg/kg/injection, schedule: Q04DX003 (ip), vehicle: saline) 0 of 6; (dose: 50.0 mg/kg/injection, schedule: Q04DX003 (ip), vehicle: saline) 0 of 6; under setting [4], 0 of 6; under setting [5], 0 of 6; under setting [6], 0 of 6.
For the compound `Cc1c(O)c(=O)ccn1CCCl`, the survivor count (dose: 400.0 mg/kg/injection, schedule: Q01DX005 (ip), vehicle: saline) is on record as 0 of 6.
For the compound `Cn1c(-c2ccccc2)c2c(=O)oc3ccccc3c2c1-c1ccccc1`, the survivor count is, setting by setting: under setting [7], 6 of 6; under setting [8], 6 of 6.
Turning to `CCN(CC)CCSc1c2ccccc2nc2ccccc12`, the survivor count runs as follows: (dose: 60.0 mg/kg/injection, schedule: Q01DX005 (ip), vehicle: saline) 0 of 6; (dose: 120.0 mg/kg/injection, schedule: Q01DX005 (ip), vehicle: saline) 0 of 6; (dose: 240.0 mg/kg/injection, schedule: Q01DX005 (ip), vehicle: saline) 0 of 6.
Turning to `COc1ccc(/C=C\c2cc(OC)c(OC)c(OC)c2)c(O)c1O`, the T/C (dose: 2.75 mg/kg/injection, schedule: Q01DX009 (ip), vehicle: saline + alcohol) is 126 % of control; the T/C (dose: 5.5 mg/kg/injection, schedule: Q01DX009 (ip), vehicle: saline + alcohol) was 129 % of control; the T/C (dose: 6.25 mg/kg/injection, schedule: Q01DX009 (ip), vehicle: saline + Tween-80 + alcohol) is 129 and 149 % of control; the T/C (dose: 11.0 mg/kg/injection, schedule: Q01DX009 (ip), vehicle: saline + alcohol) was 129 % of control. Also, the survivor count (dose: 25.0 mg/kg/injection, schedule: Q01DX009 (ip), vehicle: saline + Tween-80 + alcohol) is recorded as 6 of 6; the survivor count (dose: 50.0 mg/kg/injection, schedule: Q01DX009 (ip), vehicle: saline + Tween-80 + alcohol) is recorded as 4 of 6; the survivor count (dose: 100.0 mg/kg/injection, schedule: Q01DX009 (ip), vehicle: saline + Tween-80 + alcohol) is 6 of 6; the survivor count (dose: 200.0 mg/kg/injection, schedule: Q01DX009 (ip), vehicle: saline + Tween-80 + alcohol) was 2 of 5.
For the compound `CC(C)C1=C(O)C2=C(C(=O)C1=O)C1(C)CCCC(C)(C)C1C(O)C2OC=O` (stereo not drawn), under “dose: 200.0 mg/kg/injection, schedule: Q01DX005 (ip), vehicle: Klucel (hydroxypropylcellulose) (HPC)”, the survivor count was 0 of 6.
In the case of `O=C1CC([Se]c2ccccc2)C(=O)N1` (stereo not drawn), the survivor count reads like this: (dose: 100.0 mg/kg/injection, schedule: Q04DX003 (ip), vehicle: Klucel (hydroxypropylcellulose) (HPC)) 2 of 6 and 3 of 6; under setting [7], 0 of 6; under setting [8], 0 of 6.
Consider `C(=Nc1ccccc1)C1CCCC[N-]1.C(=Nc1ccccc1)C1CCCC[N-]1.[Cu+2].[O-][Cl+3]([O-])([O-])O` (stereo not drawn), for which the survivor count is on record as 0 of 6 (dose: 37.5 mg/kg/injection, schedule: Q01DX009 (ip), vehicle: saline with Tween-80); 4 of 6 (dose: 75.0 mg/kg/injection, schedule: Q01DX009 (ip), vehicle: saline with Tween-80); 6 of 6 (dose: 100.0 mg/kg/injection, schedule: Q01DX009 (ip), vehicle: saline with Tween-80); 4 of 6 under setting [2].
On to `c1ccc(Cn2cccc/c2=N/C(=NC2CCCCC2)NC2CCCCC2)cc1`, for which the survivor count is reported as 6 of 6 (dose: 12.5 mg/kg/injection, schedule: Q01DX001 (ip), vehicle: Klucel (hydroxypropylcellulose) (HPC)); 1 of 6 (dose: 50.0 mg/kg/injection, schedule: Q01DX001 (ip), vehicle: Klucel (hydroxypropylcellulose) (HPC)); 3 of 6 (dose: 100.0 mg/kg/injection, schedule: Q01DX001 (ip), vehicle: Klucel (hydroxypropylcellulose) (HPC)); 1 of 6 (dose: 200.0 mg/kg/injection, schedule: Q01DX001 (ip), vehicle: Klucel (hydroxypropylcellulose) (HPC)); 0 of 6 (dose: 400.0 mg/kg/injection, schedule: Q01DX001 (ip), vehicle: Klucel (hydroxypropylcellulose) (HPC)).
In the case of `CC1(C)C2CCC1(CS(=O)O)C(=O)C2.[Ag]` (stereo not drawn), the survivor count under setting [9] was 0 of 6.
On to `Nc1nc(Cl)c2[nH]cnc2n1`, for which the survivor count reads like this: under setting [2], 2 of 6; under setting [3], 0 of 6.
In the case of `CC12C(=O)C(Br)C1CC2S(=O)(=O)O` (stereo not drawn), the survivor count (dose: 100.0 mg/kg/injection, schedule: Q04DX002 (ip), vehicle: saline with Tween-80) was 6 of 6.
For `CCOc1c(N=Nc2ccccc2Cl)c(C)nn1C(=S)S`, the survivor count reads like this: (dose: 60.0 mg/kg/injection, schedule: Q01DX005 (ip), vehicle: Klucel + Tween-80) 1 of 4; (dose: 120.0 mg/kg/injection, schedule: Q01DX005 (ip), vehicle: Klucel + Tween-80) 0 of 6; (dose: 240.0 mg/kg/injection, schedule: Q01DX005 (ip), vehicle: Klucel + Tween-80) 0 of 6.
For `CCCCCCCCCCCCCCCCc1c(C(=O)OC)nc(N)[nH]c1=O`, the survivor count was 3 of 6 (dose: 60.0 mg/kg/injection, schedule: Q01DX005 (ip), vehicle: saline with Tween-80); 3 of 6 (dose: 120.0 mg/kg/injection, schedule: Q01DX005 (ip), vehicle: saline with Tween-80); 0 of 6 under setting [1].
With `COC(=O)c1nc(N)nc(C(=O)OC)c1C(=O)c1ccc2ccccc2c1`, under “dose: 240.0 mg/kg/injection, schedule: Q01DX005 (ip), vehicle: Klucel (hydroxypropylcellulose) (HPC)”, the survivor count is 0 of 6.
With `CCC[CH2][Sn]([CH2]CCC)([O]c1ccccc1C=Nc1ccc(F)cc1)[O]c1ccccc1C=Nc1ccc(F)cc1`, the survivor count is given as 6 of 6 (dose: 25.0 mg/kg/injection, schedule: Q01DX005 (ip), vehicle: saline with Tween-80); 0 of 6 (dose: 50.0 mg/kg/injection, schedule: Q01DX005 (ip), vehicle: saline with Tween-80); 0 of 6 (dose: 100.0 mg/kg/injection, schedule: Q01DX005 (ip), vehicle: saline with Tween-80); 0 of 6 under setting [9].
`C#CCN1CCCCC1`: the survivor count (dose: 100.0 mg/kg/injection, schedule: Q01DX005 (ip), vehicle: saline) is 0 of 6 and the survivor count (dose: 200.0 mg/kg/injection, schedule: Q01DX005 (ip), vehicle: saline) is listed as 0 of 6.

The values are drawn from PubChem BioAssay AID330 (DTP/NCI, 2004).
